Measurements reported in article PMC10036040.
These are yes or no findings as the source states them, for the method shown. Binding seen in cells or lysates may run through a third protein. Some results given as binding are weak or reduced against the parent protein; the word gives no strength.

Chains of the proteins cited; added tags and fusions are not shown.
UniProt P08670: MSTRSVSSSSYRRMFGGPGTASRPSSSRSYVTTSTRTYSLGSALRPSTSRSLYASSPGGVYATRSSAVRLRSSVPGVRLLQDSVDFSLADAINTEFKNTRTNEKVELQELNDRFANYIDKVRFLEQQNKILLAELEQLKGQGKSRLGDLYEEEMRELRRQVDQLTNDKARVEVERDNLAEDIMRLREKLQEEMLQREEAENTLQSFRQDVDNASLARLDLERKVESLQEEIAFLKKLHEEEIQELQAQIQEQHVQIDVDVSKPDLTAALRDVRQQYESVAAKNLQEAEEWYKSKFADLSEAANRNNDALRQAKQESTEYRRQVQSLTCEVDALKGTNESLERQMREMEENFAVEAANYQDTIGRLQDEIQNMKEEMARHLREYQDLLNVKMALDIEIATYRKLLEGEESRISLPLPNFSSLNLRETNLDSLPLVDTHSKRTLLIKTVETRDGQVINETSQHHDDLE

Biological target: T1, Ubiquitin carboxyl-terminal hydrolase L3 (UCHL3) (human (endogenous in Hep3B and Huh7)) (UniProt P15374)
T1 sequence: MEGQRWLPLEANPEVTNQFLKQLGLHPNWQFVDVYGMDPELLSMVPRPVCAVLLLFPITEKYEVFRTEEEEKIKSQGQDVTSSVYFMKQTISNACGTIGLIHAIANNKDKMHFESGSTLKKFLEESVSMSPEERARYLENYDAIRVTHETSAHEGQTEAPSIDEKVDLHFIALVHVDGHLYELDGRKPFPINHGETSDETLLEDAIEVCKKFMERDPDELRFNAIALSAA
Assay: co-IP; Hep3B and Huh7 cell lysates (Cell lysis buffer for Western and IP); anti-UCHL3 antibody or IgG control on magnetic beads; Western blot for Vimentin

- binding: binds
Substance: Vimentin (from UniProt P08670 1-466)
